These results are taken from PMC10954469, “Molecular and thermodynamic determinants of self-assembly and hetero-oligomerization in the enterobacterial thermo-osmo-regulatory protein H-NS” (Nucleic Acids Research, 2024).

The target in experiment [1] is H-NS (histone-like or heat-stable nucleoid structuring protein), wild type (uropathogenic E. coli). Briefly: SEC; HiLoad 26/600 Superdex 200 pg, 15, 50, 100 and 200 μM protein, 300 mM ionic strength buffer (20 mM sodium phosphate plus NaCl), pH 7, 25°C; both purified.
Experiment [2] has the same target. The experiment in a line: AUC + other: differential scanning calorimetry; thermodynamic model compared with AUC populations (20°C) and DSC curves (15-225 μM); 300 mM ionic strength, pH 7; both purified.

Results are given in words; binding and its absence hold for the method and conditions named. Some entries that bind do so weakly or less than the wild type. Where a sequence is shown, tags or fusion partners need not be part of it.

B1: H-NS (histone-like or heat-stable nucleoid structuring protein), wild type (natural protein, uropathogenic E. coli)
chain: MSEALKILNNIRTLRAQARECTLETLEEMLEKLEVVVNERREEESAAAAEVEERTRKLQQYREMLIADGIDPNELLNSLAAVKSGTKAKRAQRPAKYSYVDENGETKTWTGQGRTPAVIKKAMDEQGKSLDDFLIKQ
notes: H-NS from uropathogenic E. coli, 137 residues as printed; Polydisperse in solution: monomers, dimers, tetramers and octamers; Expressed as H-NS:intein:CBD fusion; also called H-NS WT; wild-type H-NS; source: E. coli BL21(DE3), pTXB1 vector, purified (chitin column, intein cleavage, Superdex 200 SEC)
As to B1, the binding entry in experiment [1] and in experiment [2] was “binds” throughout.
